Source: the supplement of paper PMC10849652
The list shows a part of the results. Residues, ends and D or L forms follow the SMILES beside them. *: point of attachment. Cbz = O=C(OCc1ccccc1)*

Protein sequences, listed by entry. Tags and fused reporters are not part of them. Lines headed by an entry give the natural chain unless they say otherwise; changes in a name come on top.
UniProt Q8NB91: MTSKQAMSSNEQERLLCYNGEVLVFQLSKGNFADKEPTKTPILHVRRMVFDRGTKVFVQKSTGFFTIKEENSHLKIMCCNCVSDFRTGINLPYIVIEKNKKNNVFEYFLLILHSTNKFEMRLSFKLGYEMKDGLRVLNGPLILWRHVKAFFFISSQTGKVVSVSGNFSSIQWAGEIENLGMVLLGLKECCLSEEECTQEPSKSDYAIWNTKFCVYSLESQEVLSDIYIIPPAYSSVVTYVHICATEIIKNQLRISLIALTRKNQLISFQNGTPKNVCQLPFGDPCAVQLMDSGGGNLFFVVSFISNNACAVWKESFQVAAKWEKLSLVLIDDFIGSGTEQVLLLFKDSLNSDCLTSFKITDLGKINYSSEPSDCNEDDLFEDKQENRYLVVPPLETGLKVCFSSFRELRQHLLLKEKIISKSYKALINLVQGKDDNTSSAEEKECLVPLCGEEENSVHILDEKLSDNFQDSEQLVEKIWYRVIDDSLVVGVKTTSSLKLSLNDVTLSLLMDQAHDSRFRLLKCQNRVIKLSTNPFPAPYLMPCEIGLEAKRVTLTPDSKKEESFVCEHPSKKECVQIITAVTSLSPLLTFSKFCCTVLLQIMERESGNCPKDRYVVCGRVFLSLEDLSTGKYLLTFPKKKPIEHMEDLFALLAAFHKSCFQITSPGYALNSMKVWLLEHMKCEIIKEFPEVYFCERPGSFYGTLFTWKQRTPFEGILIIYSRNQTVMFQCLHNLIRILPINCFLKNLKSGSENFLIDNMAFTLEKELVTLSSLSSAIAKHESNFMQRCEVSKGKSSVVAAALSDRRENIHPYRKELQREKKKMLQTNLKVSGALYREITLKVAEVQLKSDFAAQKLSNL
UniProt Q9Y421: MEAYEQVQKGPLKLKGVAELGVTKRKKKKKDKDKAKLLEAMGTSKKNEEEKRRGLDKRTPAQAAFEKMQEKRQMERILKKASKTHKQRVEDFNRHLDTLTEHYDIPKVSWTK
UniProt Q9H4H8: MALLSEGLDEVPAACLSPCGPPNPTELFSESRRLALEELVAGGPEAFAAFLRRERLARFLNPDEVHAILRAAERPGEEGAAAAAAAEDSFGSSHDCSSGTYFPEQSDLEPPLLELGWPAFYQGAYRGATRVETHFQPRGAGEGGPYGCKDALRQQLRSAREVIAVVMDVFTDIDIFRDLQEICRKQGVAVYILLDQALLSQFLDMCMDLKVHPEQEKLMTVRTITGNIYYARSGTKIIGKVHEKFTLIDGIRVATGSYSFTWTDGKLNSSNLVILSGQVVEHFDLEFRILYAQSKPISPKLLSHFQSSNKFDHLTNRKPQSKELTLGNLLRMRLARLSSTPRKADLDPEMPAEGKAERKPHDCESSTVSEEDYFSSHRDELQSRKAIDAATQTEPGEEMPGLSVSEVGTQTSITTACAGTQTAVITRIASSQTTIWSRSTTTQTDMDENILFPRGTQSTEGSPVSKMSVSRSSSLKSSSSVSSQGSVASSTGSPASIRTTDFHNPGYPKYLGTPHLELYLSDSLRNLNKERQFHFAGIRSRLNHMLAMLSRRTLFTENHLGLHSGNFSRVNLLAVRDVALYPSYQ
UniProt P10109: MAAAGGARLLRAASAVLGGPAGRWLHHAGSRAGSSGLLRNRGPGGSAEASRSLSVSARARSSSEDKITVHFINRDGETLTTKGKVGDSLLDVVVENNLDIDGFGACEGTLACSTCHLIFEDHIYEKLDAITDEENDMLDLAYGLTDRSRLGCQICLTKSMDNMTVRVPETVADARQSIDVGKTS
UniProt P09038, whole entry, looked up: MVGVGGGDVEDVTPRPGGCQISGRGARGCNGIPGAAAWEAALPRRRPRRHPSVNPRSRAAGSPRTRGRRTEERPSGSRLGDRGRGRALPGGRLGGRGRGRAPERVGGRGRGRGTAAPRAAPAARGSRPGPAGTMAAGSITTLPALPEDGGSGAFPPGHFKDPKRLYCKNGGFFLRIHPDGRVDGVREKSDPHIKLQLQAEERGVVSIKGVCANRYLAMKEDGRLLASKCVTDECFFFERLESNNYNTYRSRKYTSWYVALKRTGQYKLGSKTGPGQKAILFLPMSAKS
UniProt Q13045: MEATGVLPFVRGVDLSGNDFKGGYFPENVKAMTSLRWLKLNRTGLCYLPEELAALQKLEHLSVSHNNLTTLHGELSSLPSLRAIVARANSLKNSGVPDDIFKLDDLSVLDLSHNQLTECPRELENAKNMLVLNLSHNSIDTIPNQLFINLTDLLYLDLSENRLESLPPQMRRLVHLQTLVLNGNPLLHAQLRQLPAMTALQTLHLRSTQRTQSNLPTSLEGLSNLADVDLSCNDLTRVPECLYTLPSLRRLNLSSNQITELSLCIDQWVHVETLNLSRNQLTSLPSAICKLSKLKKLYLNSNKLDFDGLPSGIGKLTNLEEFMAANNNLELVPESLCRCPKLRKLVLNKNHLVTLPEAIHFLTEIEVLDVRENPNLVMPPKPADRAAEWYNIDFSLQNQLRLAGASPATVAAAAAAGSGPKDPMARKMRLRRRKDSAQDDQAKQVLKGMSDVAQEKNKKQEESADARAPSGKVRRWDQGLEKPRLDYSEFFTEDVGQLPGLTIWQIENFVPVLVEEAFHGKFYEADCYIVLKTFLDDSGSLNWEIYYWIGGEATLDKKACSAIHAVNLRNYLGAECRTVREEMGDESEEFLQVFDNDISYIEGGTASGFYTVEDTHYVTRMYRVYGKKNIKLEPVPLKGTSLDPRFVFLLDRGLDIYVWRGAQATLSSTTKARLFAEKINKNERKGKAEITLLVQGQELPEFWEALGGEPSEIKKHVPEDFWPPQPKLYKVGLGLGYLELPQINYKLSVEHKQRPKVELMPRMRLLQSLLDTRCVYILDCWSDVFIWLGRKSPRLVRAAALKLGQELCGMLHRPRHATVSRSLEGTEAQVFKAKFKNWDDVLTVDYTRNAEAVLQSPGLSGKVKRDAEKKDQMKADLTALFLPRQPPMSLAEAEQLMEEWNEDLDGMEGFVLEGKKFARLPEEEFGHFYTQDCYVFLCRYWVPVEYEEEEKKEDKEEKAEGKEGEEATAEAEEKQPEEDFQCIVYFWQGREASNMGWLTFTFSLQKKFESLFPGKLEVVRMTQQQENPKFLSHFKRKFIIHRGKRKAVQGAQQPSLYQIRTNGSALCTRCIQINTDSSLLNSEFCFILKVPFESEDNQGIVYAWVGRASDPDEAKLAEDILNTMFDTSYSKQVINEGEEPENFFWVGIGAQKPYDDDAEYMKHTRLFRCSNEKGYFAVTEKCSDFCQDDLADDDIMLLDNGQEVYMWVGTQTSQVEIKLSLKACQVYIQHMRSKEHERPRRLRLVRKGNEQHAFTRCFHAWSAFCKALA
UniProt Q9UBU6: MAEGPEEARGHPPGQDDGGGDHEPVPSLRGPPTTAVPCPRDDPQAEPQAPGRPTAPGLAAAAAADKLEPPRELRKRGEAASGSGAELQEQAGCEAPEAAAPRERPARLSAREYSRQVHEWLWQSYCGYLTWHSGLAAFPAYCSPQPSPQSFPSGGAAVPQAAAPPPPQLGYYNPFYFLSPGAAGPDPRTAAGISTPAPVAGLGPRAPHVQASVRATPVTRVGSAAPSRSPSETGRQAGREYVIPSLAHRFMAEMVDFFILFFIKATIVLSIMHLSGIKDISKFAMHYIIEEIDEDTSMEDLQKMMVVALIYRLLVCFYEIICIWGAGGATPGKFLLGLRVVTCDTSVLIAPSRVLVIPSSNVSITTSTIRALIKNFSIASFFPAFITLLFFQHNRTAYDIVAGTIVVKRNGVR
UniProt Q96IG2: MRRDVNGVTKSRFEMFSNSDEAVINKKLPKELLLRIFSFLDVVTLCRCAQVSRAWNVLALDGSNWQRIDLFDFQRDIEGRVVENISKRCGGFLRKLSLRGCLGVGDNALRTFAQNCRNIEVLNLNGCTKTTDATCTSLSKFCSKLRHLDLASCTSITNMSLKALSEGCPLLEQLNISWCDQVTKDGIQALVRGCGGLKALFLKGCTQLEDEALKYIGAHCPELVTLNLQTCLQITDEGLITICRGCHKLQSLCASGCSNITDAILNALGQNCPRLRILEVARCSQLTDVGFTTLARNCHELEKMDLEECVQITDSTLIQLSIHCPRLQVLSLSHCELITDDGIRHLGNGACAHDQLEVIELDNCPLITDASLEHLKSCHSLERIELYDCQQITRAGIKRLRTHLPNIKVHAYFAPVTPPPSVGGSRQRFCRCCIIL
UniProt O95684: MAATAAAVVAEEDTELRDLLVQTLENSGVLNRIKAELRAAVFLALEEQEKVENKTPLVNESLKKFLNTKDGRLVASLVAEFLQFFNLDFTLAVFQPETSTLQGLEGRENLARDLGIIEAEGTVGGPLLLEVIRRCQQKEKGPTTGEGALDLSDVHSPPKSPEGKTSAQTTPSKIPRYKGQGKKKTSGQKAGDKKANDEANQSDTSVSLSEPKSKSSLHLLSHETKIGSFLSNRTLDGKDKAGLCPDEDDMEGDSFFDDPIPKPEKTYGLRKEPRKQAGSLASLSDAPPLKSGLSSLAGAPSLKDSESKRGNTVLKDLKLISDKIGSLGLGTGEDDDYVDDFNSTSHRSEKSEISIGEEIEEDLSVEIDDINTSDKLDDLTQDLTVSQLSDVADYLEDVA
UniProt P22830: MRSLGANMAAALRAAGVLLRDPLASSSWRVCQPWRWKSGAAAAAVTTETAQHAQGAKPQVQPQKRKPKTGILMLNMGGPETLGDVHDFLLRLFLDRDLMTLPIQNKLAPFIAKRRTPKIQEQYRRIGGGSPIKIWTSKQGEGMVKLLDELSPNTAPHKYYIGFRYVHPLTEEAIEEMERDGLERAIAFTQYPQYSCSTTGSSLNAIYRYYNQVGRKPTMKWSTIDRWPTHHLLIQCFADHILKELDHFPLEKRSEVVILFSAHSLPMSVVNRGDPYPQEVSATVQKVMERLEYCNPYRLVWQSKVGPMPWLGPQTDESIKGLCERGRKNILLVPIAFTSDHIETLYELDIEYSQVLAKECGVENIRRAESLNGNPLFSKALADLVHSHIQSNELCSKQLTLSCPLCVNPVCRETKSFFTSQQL
UniProt Q92913: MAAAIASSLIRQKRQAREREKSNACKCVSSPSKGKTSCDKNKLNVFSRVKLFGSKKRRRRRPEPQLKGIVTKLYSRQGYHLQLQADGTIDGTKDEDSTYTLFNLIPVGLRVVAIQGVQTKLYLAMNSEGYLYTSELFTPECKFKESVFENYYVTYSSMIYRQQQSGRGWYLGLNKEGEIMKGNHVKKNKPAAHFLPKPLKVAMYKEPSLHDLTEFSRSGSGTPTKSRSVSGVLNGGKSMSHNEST
UniProt Q9Y3D6: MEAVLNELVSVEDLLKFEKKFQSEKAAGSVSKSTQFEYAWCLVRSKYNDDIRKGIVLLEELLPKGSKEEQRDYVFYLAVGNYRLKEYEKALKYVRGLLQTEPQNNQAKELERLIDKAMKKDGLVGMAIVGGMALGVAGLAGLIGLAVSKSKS
UniProt Q6P4F2: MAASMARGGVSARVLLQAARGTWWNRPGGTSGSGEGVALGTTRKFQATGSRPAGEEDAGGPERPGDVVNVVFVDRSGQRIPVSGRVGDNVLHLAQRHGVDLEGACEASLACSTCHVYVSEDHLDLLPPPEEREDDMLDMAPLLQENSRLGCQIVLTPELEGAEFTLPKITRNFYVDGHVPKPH
UniProt Q14320: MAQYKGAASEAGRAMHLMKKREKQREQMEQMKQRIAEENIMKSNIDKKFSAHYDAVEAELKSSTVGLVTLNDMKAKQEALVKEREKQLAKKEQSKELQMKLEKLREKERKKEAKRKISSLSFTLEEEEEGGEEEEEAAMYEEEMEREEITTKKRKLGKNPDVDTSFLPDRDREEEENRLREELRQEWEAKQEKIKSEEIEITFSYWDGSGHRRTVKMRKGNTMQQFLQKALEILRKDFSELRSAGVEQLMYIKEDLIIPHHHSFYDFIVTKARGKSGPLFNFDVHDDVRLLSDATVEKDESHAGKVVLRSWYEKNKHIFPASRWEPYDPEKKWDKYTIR
UniProt Q9UIM3: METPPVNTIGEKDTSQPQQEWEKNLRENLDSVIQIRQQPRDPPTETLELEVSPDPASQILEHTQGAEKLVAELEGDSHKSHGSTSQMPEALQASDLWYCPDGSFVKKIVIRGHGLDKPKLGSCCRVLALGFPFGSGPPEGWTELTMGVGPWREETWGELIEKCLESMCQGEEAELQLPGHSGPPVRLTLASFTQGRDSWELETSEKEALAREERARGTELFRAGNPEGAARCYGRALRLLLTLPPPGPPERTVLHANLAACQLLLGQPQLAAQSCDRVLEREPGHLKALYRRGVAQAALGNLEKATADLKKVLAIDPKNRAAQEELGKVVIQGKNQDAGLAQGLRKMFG
UniProt P22087: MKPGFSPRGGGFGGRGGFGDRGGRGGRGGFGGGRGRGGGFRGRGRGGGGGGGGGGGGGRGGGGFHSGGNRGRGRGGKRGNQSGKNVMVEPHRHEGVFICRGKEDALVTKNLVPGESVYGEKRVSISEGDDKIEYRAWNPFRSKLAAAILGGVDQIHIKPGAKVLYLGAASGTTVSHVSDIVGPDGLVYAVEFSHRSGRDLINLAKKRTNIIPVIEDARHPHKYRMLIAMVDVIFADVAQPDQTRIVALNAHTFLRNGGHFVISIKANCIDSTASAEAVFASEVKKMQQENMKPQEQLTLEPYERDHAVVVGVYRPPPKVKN

Experiments:
Experiment in all cases: log2 fold change, soluble protein after heating vs DMSO (PISA); higher = thermal stabilisation; K562 cells, 10 uM, 30 min; active = over 0.2 and 3.5 SD of the protein, either way, in both replicates (recomputed)
IRAK-1-4 Inhibitor I = compound: C1COCCN1CCN2C3=CC=CC=C3N=C2NC(=O)C4=CC(=CC=C4)[N+](=O)[O-] [IRAK-1-4 Inhibitor I]
How it was run: (§1)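 K562 cells at 2×10^6 cells/mL were treated for 30 min with 10 μM compound, and aliquots were heated for 3 min over 48°C-58°C before pooling. Extraction used PBS with 0.5% NP-40 at 4°C, and soluble protein was the supernatant after 21,000xg for 90 min, measured by TMTpro 16plex LC-MS/MS with channel sums equalised. Thermal stability values, relative to control samples and from duplicates, are log2 fold changes.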

ibrutinib = compound: C=CC(=O)N1CCC[C@@H](n2nc(-c3ccc(Oc4ccccc4)cc3)c3c(N)ncnc32)C1 [ibrutinib]
How it was run: as §1

[1] = compound: CC(=O)c1cnc2ccc(-c3cc(Cl)c(O)c(Cl)c3)nc2c1N[C@H]1CC[C@H](CN(C)C)CC1
How it was run: as §1

ralimetinib = compound: CC(C)(C)Cn1c(N)nc2ccc(-c3[nH]c(C(C)(C)C)nc3-c3ccc(F)cc3)nc21 [ralimetinib]
How it was run: as §1

[2] = compound: CC(C)(O)CC(=O)NCCn1ccc2ncnc(Nc3ccc(Oc4cccc(C(F)(F)F)c4)c(Cl)c3)c21
How it was run: as §1

[3] = compound: CC(C)C1=C2N=C(C=C(N2N=C1)NCC3=CC=CC=C3)NCCCCCCN
How it was run: as §1

[4] = compound: CC(C)C[C@@H](C=O)NC(=O)[C@H](CC(C)C)NC(=O)[C@H](CC(C)C)NC(=O)OCc1ccccc1
How it was run: as §1

pinometostat = compound: CC(C)N(C[C@H]1O[C@@H](n2cnc3c(N)ncnc32)[C@H](O)[C@@H]1O)[C@H]1C[C@@H](CCc2nc3cc(C(C)(C)C)ccc3[nH]2)C1 [pinometostat]
How it was run: as §1

[5] = compound: CC1=C(C(CC(=O)N1)C2=CC=C(C=C2)C(F)(F)F)C(=O)NC3=C(C=C4C(=C3)C=NN4)F
How it was run: as §1

[6] = compound: CC1=C(C2=C(C=C1)C(=O)C3=CC=CC=C3N2CCCN)C
How it was run: as §1

[7] = compound: CC1=C(C=C(C=C1)NC(=O)C2=CC(=CC=C2)C(C)(C)C#N)NC3=CC4=C(C=C3)N=CN(C4=O)C
How it was run: as §1

[8] = compound: CC1=C(C=C(C=C1)NC(=O)C2=CC(=CC=C2)N(C)C)NC(=O)C3=CC=C(C=C3)O
How it was run: as §1

[9] = compound: CC1=CC=C(C=C1)SC2=C3C=C(SC3=CN=C2)C(=O)N
How it was run: as §1

[10] = compound: CC1=NC(=CC=C1)C2=C(N=C(N2)C(C)(C)C)C3=CC4=NC=CN=C4C=C3
How it was run: as §1

Nexturastat A = compound: CCCCN(Cc1ccc(C(=O)NO)cc1)C(=O)Nc1ccccc1 [Nexturastat A]
How it was run: as §1

vemurafenib = compound: CCCS(=O)(=O)Nc1ccc(F)c(C(=O)c2c[nH]c3ncc(-c4ccc(Cl)cc4)cc23)c1F [vemurafenib]
How it was run: as §1

[11] = compound: CCCS(=O)(=O)Nc1ccc(F)c(C(=O)c2c[nH]c3ncc(Cl)cc23)c1F
How it was run: as §1

[12] = compound: CCCc1cc(C)[nH]c(=O)c1CNC(=O)c1cc(-c2ccnc(N3CCN(C)CC3)c2)cc2c1cnn2C(C)C
How it was run: as §1

givinostat = compound: CCN(CC)Cc1ccc2cc(COC(=O)Nc3ccc(C(=O)NO)cc3)ccc2c1 [givinostat]
How it was run: as §1

barasertib = compound: CCN(CCCOc1ccc2c(Nc3cc(CC(=O)Nc4cccc(F)c4)[nH]n3)ncnc2c1)CCOP(=O)(O)O [barasertib]
How it was run: as §1

Row | Target | log2 fold change (IRAK-1-4 Inhibitor I) | log2 fold change (ibrutinib) | log2 fold change [1] | log2 fold change (ralimetinib) | log2 fold change [2] | log2 fold change [3] | log2 fold change [4] | log2 fold change (pinometostat) | log2 fold change [5] | log2 fold change [6] | log2 fold change [7] | log2 fold change [8] | log2 fold change [9] | log2 fold change [10] | log2 fold change (Nexturastat A) | log2 fold change (vemurafenib) | log2 fold change [11] | log2 fold change [12] | log2 fold change (givinostat) | log2 fold change (barasertib)
1 | FANCB (UniProt Q8NB91) | inactive: 0.035 | inactive: -0.004 | inactive: -0.065 | inactive: -0.061 | inactive: -0.007 | inactive: 0.07 | inactive: -0.006 | inactive: 0.004 | inactive: 0.031 | inactive: 0.049 | inactive: 0.024 | inactive: 0.027 | inactive: 0.022 | inactive: 0.015 | inactive: -0.065 | inactive: -0.028 | inactive: 0.029 | inactive: 0.001 | inactive: -0.003 | inactive: 0.102
2 | FAM32A (UniProt Q9Y421) | inactive: -0.142 | inactive: 0.04 | inactive: 0.077 | inactive: 0.062 | inactive: 0.057 | inactive: 0.087 | inactive: 0.144 | inactive: -0.001 | inactive: 0.08 | inactive: -0.023 | inactive: -0.054 | inactive: 0.047 | inactive: 0.011 | inactive: -0.017 | inactive: 0.033 | inactive: -0.115 | inactive: -0.053 | inactive: -0.032 | inactive: -0.057 | inactive: -0.086
3 | FAM83D (UniProt Q9H4H8) | inactive: 0 | inactive: -0.094 | inactive: 0.022 | inactive: 0.145 | inactive: -0.035 | inactive: -0.232 | inactive: -0.062 | inactive: 0.041 | – | inactive: 0.1 | inactive: 0.008 | inactive: -0.029 | inactive: 0.028 | inactive: 0.018 | inactive: 0.102 | inactive: 0.041 | inactive: 0.097 | inactive: 0.016 | inactive: 0.103 | inactive: 0.128
4 | FDX1 (UniProt P10109) | inactive: 0.035 | inactive: 0.021 | inactive: 0.027 | inactive: -0.046 | inactive: 0.02 | inactive: 0.045 | inactive: 0.017 | inactive: -0.061 | inactive: 0.041 | inactive: -0.064 | inactive: 0.101 | inactive: 0 | inactive: -0.018 | inactive: -0.014 | inactive: -0.041 | inactive: -0.028 | inactive: -0.012 | inactive: -0.09 | inactive: -0.033 | inactive: 0.069
5 | FGF2 (UniProt P09038) | inactive: -0.005 | inactive: 0.122 | inactive: -0.081 | inactive: 0.017 | inactive: 0.049 | inactive: -0.093 | inactive: 0.054 | inactive: 0.041 | inactive: -0.057 | inactive: -0.031 | inactive: -0.06 | inactive: 0.163 | inactive: 0.106 | inactive: -0.032 | inactive: 0.101 | inactive: -0.033 | inactive: -0.059 | inactive: -0.039 | inactive: 0.023 | inactive: -0.039
6 | FLII (UniProt Q13045) | inactive: -0.032 | inactive: -0.017 | inactive: 0.035 | inactive: 0.027 | inactive: -0.016 | inactive: -0.047 | inactive: 0.017 | inactive: 0.016 | inactive: -0.02 | inactive: -0.049 | inactive: 0.017 | inactive: -0.016 | inactive: -0.008 | inactive: 0.009 | inactive: 0.013 | inactive: 0.027 | inactive: 0.003 | inactive: 0.011 | inactive: 0.016 | inactive: 0.026
7 | FAM8A1 (UniProt Q9UBU6) | inactive: 0.024 | inactive: 0.009 | inactive: 0.001 | inactive: 0.051 | inactive: -0.038 | inactive: -0.133 | inactive: -0.09 | inactive: -0.096 | inactive: -0.014 | inactive: -0.138 | inactive: 0.033 | inactive: 0.063 | inactive: -0.086 | inactive: -0.003 | inactive: 0.088 | inactive: -0.078 | inactive: -0.046 | inactive: -0.151 | inactive: 0.097 | inactive: 0.031
8 | FBXL20 (UniProt Q96IG2) | inactive: 0.074 | inactive: -0.053 | inactive: -0.017 | inactive: 0.068 | inactive: 0.014 | inactive: -0.043 | inactive: 0.067 | inactive: 0.016 | inactive: -0.044 | inactive: 0.047 | inactive: -0.02 | inactive: -0.042 | inactive: -0.007 | inactive: -0.047 | inactive: 0.176 | inactive: -0.04 | inactive: -0.032 | inactive: 0.032 | inactive: -0.049 | inactive: 0.041
9 | FGFR1OP (UniProt O95684) | inactive: 0.017 | inactive: 0.012 | inactive: 0.028 | inactive: -0.042 | inactive: -0.009 | inactive: -0.048 | inactive: 0.129 | inactive: -0.048 | inactive: -0.014 | inactive: -0.081 | inactive: 0.018 | inactive: 0.016 | inactive: 0.008 | inactive: -0.025 | inactive: 0.017 | inactive: -0.004 | inactive: 0.059 | inactive: 0.006 | inactive: 0.048 | inactive: -0.016
10 | FECH isoform 2 (UniProt P22830) | inactive: 0.408 | inactive: 0.082 | inactive: 0.129 | inactive: 0.159 | inactive: 0.426 | active: -0.691 | inactive: -0.144 | inactive: -0.098 | – | inactive: 0.514 | inactive: 0.45 | inactive: 0.162 | inactive: -0.16 | inactive: -0.006 | inactive: -0.123 | inactive: 0.022 | inactive: -0.167 | inactive: 0.367 | inactive: -0.238 | inactive: -0.049
11 | FGF13 isoform 3 (UniProt Q92913) | inactive: -0.081 | inactive: 0.076 | inactive: 0.048 | inactive: -0.088 | inactive: -0.069 | inactive: 0.145 | inactive: 0.111 | inactive: 0.011 | inactive: 0.067 | inactive: 0.12 | inactive: -0.029 | inactive: 0.086 | inactive: -0.048 | inactive: 0.025 | inactive: 0.047 | inactive: 0.058 | inactive: -0.004 | inactive: -0.112 | inactive: 0.032 | inactive: 0.027
12 | FIS1 (UniProt Q9Y3D6) | inactive: 0.029 | inactive: 0.003 | inactive: 0.067 | inactive: -0.036 | inactive: 0.029 | inactive: -0.023 | inactive: -0.025 | inactive: -0.074 | – | inactive: -0.031 | inactive: -0.024 | inactive: 0.006 | inactive: 0 | inactive: 0 | inactive: -0.018 | inactive: 0.048 | inactive: -0.046 | inactive: -0.009 | inactive: -0.014 | inactive: -0.027
13 | FDX2 (UniProt Q6P4F2) | inactive: 0.116 | inactive: 0.042 | inactive: -0.08 | inactive: -0.099 | inactive: -0.048 | inactive: 0.084 | inactive: 0.062 | inactive: -0.059 | inactive: 0.09 | inactive: 0.061 | inactive: -0.107 | inactive: 0 | inactive: 0.036 | inactive: -0.174 | inactive: 0.103 | inactive: -0.06 | inactive: 0.04 | inactive: -0.104 | inactive: -0.07 | inactive: -0.018
14 | FAM50A (UniProt Q14320) | inactive: -0.014 | inactive: -0.011 | inactive: -0.01 | inactive: -0.029 | inactive: -0.027 | inactive: 0 | inactive: 0.043 | inactive: -0.016 | – | inactive: 0.053 | inactive: 0.041 | inactive: -0.059 | inactive: 0.019 | inactive: 0.057 | inactive: -0.069 | inactive: 0.049 | inactive: 0.035 | inactive: 0.014 | inactive: 0.102 | inactive: 0.026
15 | FKBPL (UniProt Q9UIM3) | inactive: -0.002 | inactive: 0.015 | inactive: 0 | inactive: -0.056 | inactive: -0.058 | inactive: 0.018 | inactive: 0.008 | inactive: 0 | inactive: -0.071 | inactive: 0.026 | inactive: 0.011 | inactive: 0.006 | inactive: -0.047 | inactive: 0 | inactive: 0 | inactive: -0.017 | inactive: -0.013 | inactive: -0.004 | inactive: -0.045 | inactive: 0.023
16 | FBL (UniProt P22087) | inactive: -0.094 | inactive: 0.048 | inactive: -0.03 | inactive: 0.17 | inactive: 0.146 | inactive: 0.199 | inactive: 0.184 | inactive: 0.319 | – | inactive: 0.206 | inactive: -0.039 | inactive: 0.062 | inactive: -0.146 | inactive: -0.077 | inactive: 0.243 | inactive: -0.11 | inactive: -0.058 | inactive: 0.165 | inactive: 0.138 | inactive: -0.106

An excerpt of these results, as a markdown table.

| Row | Target | log2 fold change (IRAK-1-4 Inhibitor I) | log2 fold change (ibrutinib) | log2 fold change [1] | log2 fold change (ralimetinib) | log2 fold change [2] | log2 fold change [3] | log2 fold change [4] | log2 fold change (pinometostat) | log2 fold change [5] | log2 fold change [6] | log2 fold change [7] | log2 fold change [8] | log2 fold change [9] | log2 fold change [10] | log2 fold change (Nexturastat A) | log2 fold change (vemurafenib) | log2 fold change [11] | log2 fold change [12] | log2 fold change (givinostat) | log2 fold change (barasertib) |
| --- | --- | --- | --- | --- | --- | --- | --- | --- | --- | --- | --- | --- | --- | --- | --- | --- | --- | --- | --- | --- | --- |
| 13 | FDX2 (UniProt Q6P4F2) | inactive: 0.116 | inactive: 0.042 | inactive: -0.08 | inactive: -0.099 | inactive: -0.048 | inactive: 0.084 | inactive: 0.062 | inactive: -0.059 | inactive: 0.09 | inactive: 0.061 | inactive: -0.107 | inactive: 0 | inactive: 0.036 | inactive: -0.174 | inactive: 0.103 | inactive: -0.06 | inactive: 0.04 | inactive: -0.104 | inactive: -0.07 | inactive: -0.018 |
| 14 | FAM50A (UniProt Q14320) | inactive: -0.014 | inactive: -0.011 | inactive: -0.01 | inactive: -0.029 | inactive: -0.027 | inactive: 0 | inactive: 0.043 | inactive: -0.016 | – | inactive: 0.053 | inactive: 0.041 | inactive: -0.059 | inactive: 0.019 | inactive: 0.057 | inactive: -0.069 | inactive: 0.049 | inactive: 0.035 | inactive: 0.014 | inactive: 0.102 | inactive: 0.026 |
